The source of these data is PMC4303897.

Protein sequences, listed by entry. Tags and fused reporters are not part of them. Lines headed by an entry give the natural chain unless they say otherwise; changes in a name come on top.
UniProt Q16891: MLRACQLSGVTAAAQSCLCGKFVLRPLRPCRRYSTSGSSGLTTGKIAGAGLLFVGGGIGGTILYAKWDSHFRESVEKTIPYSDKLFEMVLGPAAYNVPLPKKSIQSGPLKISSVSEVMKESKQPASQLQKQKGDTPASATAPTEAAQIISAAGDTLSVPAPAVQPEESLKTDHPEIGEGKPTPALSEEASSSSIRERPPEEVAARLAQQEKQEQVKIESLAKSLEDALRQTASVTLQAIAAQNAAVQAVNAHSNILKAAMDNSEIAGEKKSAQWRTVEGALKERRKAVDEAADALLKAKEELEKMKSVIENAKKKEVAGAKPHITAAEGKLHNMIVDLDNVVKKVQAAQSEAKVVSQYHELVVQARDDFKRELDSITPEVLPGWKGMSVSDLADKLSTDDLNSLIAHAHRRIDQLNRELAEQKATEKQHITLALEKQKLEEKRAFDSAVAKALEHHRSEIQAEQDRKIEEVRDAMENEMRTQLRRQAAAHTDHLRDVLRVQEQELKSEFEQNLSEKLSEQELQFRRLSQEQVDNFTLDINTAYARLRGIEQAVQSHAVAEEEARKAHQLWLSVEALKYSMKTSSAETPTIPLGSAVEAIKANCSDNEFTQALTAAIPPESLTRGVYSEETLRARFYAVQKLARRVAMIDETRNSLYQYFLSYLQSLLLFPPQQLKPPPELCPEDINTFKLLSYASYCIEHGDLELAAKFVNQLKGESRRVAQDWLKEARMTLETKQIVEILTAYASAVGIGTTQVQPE

No constants are given. Whether binding was seen depends on the method and setting. In cells and extracts the contact can be indirect. Binding can be weak; no strength is given. Sequences can lack the tags named with a protein.

The target of the experiment is Mic60-MBP (human) (UniProt Q16891). In words: pull-down; Mic60-MBP from bacterial supernatant immobilised on resin, incubated with purified GST fusion proteins or GST control; bound complexes washed, eluted, immunoblotted; only the binder purified. In general terms: A western blot detects proteins with antibodies after separation by electrophoresis.

B1: TFB2M-GST (protein, UniProt Q9H5Q4 20-396)
chain: AGRFCILGSEAATRKHLPARNHCGLSDSSPQLWPEPDFRNPPRKASKASLDFKRYVTDRRLAETLAQIYLGKPSRPPHLLLECNPGPGILTQALLEAGAKVVALESDKTFIPHLESLGKNLDGKLRVIHCDFFKLDPRSGGVIKPPAMSSRGLFKNLGIEAVPWTADIPLKVVGMFPSRGEKRALWKLAYDLYSCTSIYKFGRIEVNMFIGEKEFQKLMADPGNPDLYHVLSVIWQLACEIKVLHMEPWSSFDIYTRKGPLENPKRRELLDQLQQKLYLIQMIPRQNLFTKNLTPMNYNIFFHLLKHCFGRRSATVIDHLRSLTPLDARDILMQIGKQEDEKVVNMHPQDFKTLFETIERSKDCAYKWLYDETLEDR
B1: the binding result is on record as “binds”.
